The nature of data set [1]: LC-MS quantification of endogenous capped peptides in mouse plasma. The following applies: for endogenous concentration in mouse plasma, average concentration: mean of plasma 1-3 (N = 3 pooled mouse plasma samples), LC-QTOF, standard curve; for endogenous concentration in mouse plasma, plasma 1 / endogenous concentration in mouse plasma, plasma 2 / endogenous concentration in mouse plasma, plasma 3: pooled mouse plasma, 1 ml per replicate; for endogenous concentration in mouse plasma, plasma 1: LC-QTOF peak integration against standard curve (100 nM and 10 nM standards), replicate plasma 1; for endogenous concentration in mouse plasma, plasma 2 / endogenous concentration in mouse plasma, plasma 3: LC-QTOF peak integration against standard curve; for endogenous concentration in mouse plasma, plasma 2: replicate plasma 2; for endogenous concentration in mouse plasma, plasma 3: replicate plasma 3.

The nature of data set [2]: Dynamic regulation of circulating capped peptide levels by physiologic perturbations. The data set is classed as in vivo, mouse. The settings on record: for 6 PM/6 AM log2(FC): log2 fold change between morning and evening; for LPS/Vehicle log2(FC) / Fasted/Fed log2(FC) / DIO/Lean log2(FC) / Run/Sed log2(FC): log2 fold change; for LPS/Vehicle log2(FC): 5 hour post LPS vs Vehicle injection; for Fasted/Fed log2(FC): fasted vs fed lean mice; for DIO/Lean log2(FC): fed DIO vs fed lean mice; for Run/Sed log2(FC): immediately after 1 hour running vs sedentary; for Old/Young log2(FC) / Fold change of peptides between sedentary and immediately after 1 hour running, log2(FC): mouse plasma; for Old/Young log2(FC): aged versus young mice, mean of n = 2 per group; for Fold change of peptides between sedentary and immediately after 1 hour running, log2(FC): mean of n = 3 per group.

Data set [3] can be described thus: LC-MS quantification of endogenous capped peptides in human plasma. The following applies: mean of plasma 1-3 (n = 3), LC-MS MRM quantified against synthetic standards.

Where a SMILES comes first, the peptide text is derived from it. [ ]: non-standard residue; d: D form. pGlu = O=C1CC[C@@H](C(=O)O)N1

Consider `CC[C@H](C)[C@H](NC(=O)CNC(=O)[C@H](Cc1c[nH]c2ccccc12)NC(=O)[C@H](CO)NC(=O)[C@H](Cc1c[nH]cn1)NC(=O)[C@H](CO)NC(=O)[C@H](CCCCN)NC(=O)[C@@H]1CCCN1C(=O)[C@H](CC(C)C)NC(=O)[C@H](CC(C)C)NC(=O)[C@H](CC(C)C)NC(=O)[C@@H]1CCC(=O)N1)C(=O)N[C@H](C(=O)N[C@@H](CC(C)C)C(=O)N1CCC[C@H]1C(=O)N[C@@H](CC(C)C)C(=O)NCC(=O)N[C@@H](CCC(=O)O)C(=O)N[C@@H](CC(C)C)C(=O)N[C@@H](CCC(=O)O)C(N)=O)C(C)C` [CAP-CSF1] ([pGlu]LLLPKSHSWGIVLPLGELE-NH2), for which, in data set [1], the “endogenous concentration in mouse plasma, average concentration” value was 1.773 nM; the “endogenous concentration in mouse plasma, plasma 1” value (shortened to “endogenous concentration … plasma 1”) is recorded as 0.458 nM; the “endogenous concentration in mouse plasma, plasma 2” value (shortened to “endogenous concentration … plasma 2”) was determined as 2.0447 nM; the “endogenous concentration in mouse plasma, plasma 3” value (shortened to “endogenous concentration … plasma 3”) is 2.817 nM.
Taken in the same sequence, the figures for `CC(C)C[C@H](NC(=O)[C@@H]1CCC(=O)N1)C(=O)N[C@@H](CCC(=O)O)C(=O)N[C@@H](CC(C)C)C(=O)N[C@@H](CCCNC(=N)N)C(=O)N[C@@H](CC(C)C)C(=O)N[C@@H](CCCNC(=N)N)C(=O)N[C@H](C(=O)N[C@@H](C)C(=O)N[C@@H](C)C(=O)NCC(=O)N[C@@H](CCCNC(=N)N)C(N)=O)C(C)C` [CAP-GDF15] ([pGlu]LELRLRVAAGR-NH2) were 0.1443 nM, 0.1814 nM, 0.04805 nM and 0.2033 nM.
Taken in the same sequence, the figures for `CC[C@H](C)[C@H](NC(=O)[C@H](CCSC)NC(=O)[C@H](CCC(=O)O)NC(=O)CNC(=O)[C@H](Cc1ccccc1)NC(=O)[C@@H]1CCC(=O)N1)C(=O)N[C@@H](CCCNC(=N)N)C(=O)N[C@@H](CC(C)C)C(=O)N[C@@H](CCCCN)C(=O)N[C@H](C(N)=O)[C@@H](C)O` [CAP-PLA2G2A] ([pGlu]FGEMIRLKT-NH2) were 0.1415 nM, 0.1399 nM, 0.109 nM and 0.1756 nM.
`CC(C)C[C@H](NC(=O)CNC(=O)[C@H](Cc1ccc(O)cc1)NC(=O)[C@H](CO)NC(=O)[C@H](Cc1c[nH]c2ccccc12)NC(=O)[C@H](Cc1c[nH]cn1)NC(=O)[C@@H]1CCC(=O)N1)C(=O)N[C@@H](CCCNC(=N)N)C(=O)N1CCC[C@H]1C(=O)NCC(N)=O` [GnRH, reference compound]: in data set [1], the “endogenous concentration in mouse plasma, average concentration” value stood at 0.05523 nM; the “endogenous concentration … plasma 1” value is reported as 0.02876 nM; the “endogenous concentration … plasma 2” value was found to be 0.02725 nM; the “endogenous concentration … plasma 3” value is 0.1097 nM.
Take “QEPMKKCT [CAP-PRG4, mouse capped peptide from Proteoglycan 4]”: in data set [1], the “endogenous concentration in mouse plasma, average concentration” value came to 1.211 nM; the “endogenous concentration … plasma 1” value was determined as 0.9138 nM; the “endogenous concentration … plasma 2” value worked out at 0.9957 nM; the “endogenous concentration … plasma 3” value was 1.722 nM. Besides, in data set [2], the “6 PM/6 AM log2(FC)” value turned out to be 0.3805, the “LPS/Vehicle log2(FC)” value is on record as -0.173, the “Fasted/Fed log2(FC)” value is listed as -0.4992 and the “DIO/Lean log2(FC)” value is listed as -0.4762. In data set [2], the “Run/Sed log2(FC)” value is 0.0947 and the “Old/Young log2(FC)” value is listed as -0.7175. In addition, the “average concentration” value in data set [3] is recorded as 3.658 nM.
As to QGCLRF [CAP-Q59F13], the “average concentration” value in data set [3] amounted to 0.5324 nM.
For the compound “QISAKKYLESLI [CAP-VIP, mouse capped peptide from VIP peptides precursor]”, in data set [1], the “endogenous concentration in mouse plasma, average concentration” value was 0.2649 nM; the “endogenous concentration … plasma 1” value turned out to be 0.1936 nM; the “endogenous concentration … plasma 2” value is recorded as 0.1611 nM; the “endogenous concentration … plasma 3” value was found to be 0.4401 nM. The “average concentration” value in data set [3] came to 5.384 nM.
For “QKRHFC [CAP-ADAMTS18, mouse capped peptide from ADAMTS18]”, in data set [1], the “endogenous concentration in mouse plasma, average concentration” value was 15.3773 nM; the “endogenous concentration … plasma 1” value is listed as 15.4721 nM; the “endogenous concentration … plasma 2” value amounted to 11.3869 nM; the “endogenous concentration … plasma 3” value is on record as 19.2727 nM. Moreover, in data set [2], the “6 PM/6 AM log2(FC)” value was -0.2267, the “LPS/Vehicle log2(FC)” value was -1.042, the “Fasted/Fed log2(FC)” value is reported as -0.07115 and the “DIO/Lean log2(FC)” value is reported as -0.3088. In data set [2], the “Run/Sed log2(FC)” value was 0.3971 and the “Old/Young log2(FC)” value is -0.7303.
With “QLLPGMLCAGYPE [CAP-PRSS36, mouse capped peptide from Polyserase-2]”, in data set [1], the “endogenous concentration in mouse plasma, average concentration” value is given as 3.088 nM; the “endogenous concentration … plasma 1” value stood at 5.297 nM; the “endogenous concentration … plasma 2” value turned out to be 1.186 nM; the “endogenous concentration … plasma 3” value was 2.7798 nM. In addition, in data set [2], the “6 PM/6 AM log2(FC)” value is given as -0.3148, the “LPS/Vehicle log2(FC)” value worked out at 0.08066, the “Fasted/Fed log2(FC)” value was -0.6957 and the “DIO/Lean log2(FC)” value is given as -0.3163. Further, in data set [2], the “Run/Sed log2(FC)” value is on record as -0.2534 and the “Old/Young log2(FC)” value is -0.3184.
For the compound “QPKFSFC [CAP-LY86, mouse capped peptide from Lymphocyte antigen 86]”, in data set [1], the “endogenous concentration in mouse plasma, average concentration” value turned out to be 0.2295 nM; the “endogenous concentration … plasma 1” value is on record as 0.2116 nM; the “endogenous concentration … plasma 2” value came out at 0.0881 nM; the “endogenous concentration … plasma 3” value was 0.3886 nM. In addition, in data set [2], the “6 PM/6 AM log2(FC)” value was -0.04087, the “LPS/Vehicle log2(FC)” value is listed as -1.756, the “Fasted/Fed log2(FC)” value is reported as -0.3307 and the “DIO/Lean log2(FC)” value is 0.8634. In addition, in data set [2], the “Run/Sed log2(FC)” value is reported as -0.03549 and the “Old/Young log2(FC)” value was found to be 0.3757.
With QPVCFPPRPR [CAP-LGALS9], the “average concentration” value in data set [3] was 3.6196 nM.
As for “QPVYKPYLTLCA [CAP-EGFL8, mouse capped peptide from Epidermal growth factor-like protein 8]”, in data set [1], the “endogenous concentration in mouse plasma, average concentration” value was determined as 2.3085 nM; the “endogenous concentration … plasma 1” value was 1.273 nM; the “endogenous concentration … plasma 2” value was 3.141 nM; the “endogenous concentration … plasma 3” value is reported as 2.512 nM. In data set [2], the “6 PM/6 AM log2(FC)” value turned out to be 1.192, the “LPS/Vehicle log2(FC)” value is recorded as 0.7853, the “Fasted/Fed log2(FC)” value is listed as 2.335 and the “DIO/Lean log2(FC)” value came to 1.92. Moreover, in data set [2], the “Old/Young log2(FC)” value is listed as -0.633; the “Fold change of peptides between sedentary and immediately after 1 hour running, log2(FC)” value is recorded as 0.3776.
Regarding QRKCIIDILTEPKDI [CAP-FURIN], in data set [3], the “average concentration” value was determined as 5.348 nM.
As to QTCVDPEDCPVCEVA [CAP-VWF], the “average concentration” value in data set [3] amounted to 1.8401 nM.
Regarding “QVVFEKC [CAP-MST1, mouse capped peptide from Hepatocyte growth factor-like protein]”, in data set [1], the “endogenous concentration in mouse plasma, average concentration” value is recorded as 0.06169 nM; the “endogenous concentration … plasma 1” value is given as 0.106 nM; the “endogenous concentration … plasma 2” value is listed as 0 nM; the “endogenous concentration … plasma 3” value is on record as 0.07908 nM. For the same compound, in data set [2], the “6 PM/6 AM log2(FC)” value is given as -0.2031, the “LPS/Vehicle log2(FC)” value is listed as -1.175, the “Fasted/Fed log2(FC)” value is on record as -1.772 and the “DIO/Lean log2(FC)” value was -1.847. Further, in data set [2], the “Run/Sed log2(FC)” value is 1.038 and the “Old/Young log2(FC)” value was 0.8207.
Take QWGGCGDNLKYSSKFVKEFL [CAP-WNT9A]: the “average concentration” value in data set [3] is 14.5507 nM.
On to “QWRRARHNYNDLCPPI [CAP-GNAS, mouse capped peptide from Neuroendocrine secretory protein 55]”, for which, in data set [1], the “endogenous concentration in mouse plasma, average concentration” value worked out at 3.19 nM; the “endogenous concentration … plasma 1” value came out at 1.87 nM; the “endogenous concentration … plasma 2” value is reported as 3.125 nM; the “endogenous concentration … plasma 3” value is given as 4.575 nM. In addition, in data set [2], the “6 PM/6 AM log2(FC)” value is reported as -0.4545, the “LPS/Vehicle log2(FC)” value is listed as -0.2835, the “Fasted/Fed log2(FC)” value came to 0.183 and the “DIO/Lean log2(FC)” value is 0.8435. Besides, in data set [2], the “Old/Young log2(FC)” value is on record as -0.6283; the “Fold change of peptides between sedentary and immediately after 1 hour running, log2(FC)” value is given as -0.526.
As to “[pGlu]AAAASPENSRGK-NH2 (SMILES C[C@H](NC(=O)[C@H](C)NC(=O)[C@H](C)NC(=O)[C@@H]1CCC(=O)N1)C(=O)N[C@@H](C)C(=O)N[C@@H](CO)C(=O)N1CCC[C@H]1C(=O)N[C@@H](CCC(=O)O)C(=O)N[C@@H](CC(N)=O)C(=O)N[C@@H](CO)C(=O)N[C@@H](CCCNC(=N)N)C(=O)NCC(=O)N[C@@H](CCCCN)C(N)=O) [CAP-GDNF, mouse capped peptide from Glial cell line-derived neurotrophic factor]”, in data set [1], the “endogenous concentration in mouse plasma, average concentration” value is reported as 0.4203 nM; the “endogenous concentration … plasma 1” value was determined as 0.585 nM; the “endogenous concentration … plasma 2” value amounted to 0.2963 nM; the “endogenous concentration … plasma 3” value came out at 0.3797 nM. Also, the “reduction of plasma level at 6PM versus 6AM” value in data set [2] (2-month old male mice, N = 5/group, P < 0.05) was found to be 58%. Moreover, in data set [2], the “6 PM/6 AM log2(FC)” value was -1.247, the “LPS/Vehicle log2(FC)” value is given as 0.02116, the “Fasted/Fed log2(FC)” value is 0.2258 and the “DIO/Lean log2(FC)” value was -0.3117. In data set [2], the “Run/Sed log2(FC)” value came out at 1.093 and the “Old/Young log2(FC)” value stood at 0.7727. The “average concentration” value in data set [3] was determined as 1.759 nM.

The record behind these values is article PMC10709327, “A class of secreted mammalian peptides with potential to expand cell-cell communication” (Nature Communications, 2023).
